Laboratory results reported in article PMC12552961.
These are yes or no findings as the source states them, for the method shown. In cells and extracts the contact can be indirect. Some binding calls cover weakened binding; strength is not graded here.

Sequences of proteins named here, by UniProt entry; tags and fusion partners are left off.
UniProt Q6ZSJ8: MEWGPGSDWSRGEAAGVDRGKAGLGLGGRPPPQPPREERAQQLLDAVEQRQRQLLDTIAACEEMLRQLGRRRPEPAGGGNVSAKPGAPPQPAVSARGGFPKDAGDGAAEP
UniProt Q96SB4: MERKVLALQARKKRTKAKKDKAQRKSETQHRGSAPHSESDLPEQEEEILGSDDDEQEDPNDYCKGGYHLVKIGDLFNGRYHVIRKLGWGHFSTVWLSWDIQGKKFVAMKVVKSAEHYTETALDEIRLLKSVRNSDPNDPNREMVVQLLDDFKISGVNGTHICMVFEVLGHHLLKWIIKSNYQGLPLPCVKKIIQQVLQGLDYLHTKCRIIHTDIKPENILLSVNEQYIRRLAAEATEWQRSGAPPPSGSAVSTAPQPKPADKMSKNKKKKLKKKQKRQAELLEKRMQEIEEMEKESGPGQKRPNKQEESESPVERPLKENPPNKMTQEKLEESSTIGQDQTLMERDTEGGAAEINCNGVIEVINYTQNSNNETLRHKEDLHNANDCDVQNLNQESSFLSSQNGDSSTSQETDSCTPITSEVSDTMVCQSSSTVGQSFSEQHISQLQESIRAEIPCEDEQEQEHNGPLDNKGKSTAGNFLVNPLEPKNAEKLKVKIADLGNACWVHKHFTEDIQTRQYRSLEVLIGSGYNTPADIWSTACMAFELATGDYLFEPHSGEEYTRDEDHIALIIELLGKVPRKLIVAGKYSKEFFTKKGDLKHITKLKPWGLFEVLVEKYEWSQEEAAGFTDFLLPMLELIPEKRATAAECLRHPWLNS

Target: GFP-C1orf122 (Chromosome 1 open reading frame 122) (UniProt Q6ZSJ8)
Test: co-IP; 293T cells transfected with GFP-C1orf122 and FLAG-SRPK1, lysed 48 h after transfection in RM buffer; anti-GFP magnetic beads, 4 °C overnight, four washes; Western blot

- binding: binds
Substance: FLAG-SRPK1 (serine/arginine-rich protein-specific kinase 1) (from UniProt Q96SB4 1-655) (enzyme)
